Assay results published in the supplement of paper PMC10849652.
The other results are listed elsewhere or left out.

The chains behind the UniProt entries cited, without tags or fusion partners. Where a name states a change or a piece, a line headed by the entry shows the natural chain unless it says otherwise.
UniProt Q96BM9: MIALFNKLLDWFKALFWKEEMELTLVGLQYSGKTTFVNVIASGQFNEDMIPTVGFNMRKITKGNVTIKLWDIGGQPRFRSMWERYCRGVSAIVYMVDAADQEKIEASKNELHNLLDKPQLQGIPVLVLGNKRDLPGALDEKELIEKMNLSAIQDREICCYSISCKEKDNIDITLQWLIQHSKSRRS
UniProt P04114: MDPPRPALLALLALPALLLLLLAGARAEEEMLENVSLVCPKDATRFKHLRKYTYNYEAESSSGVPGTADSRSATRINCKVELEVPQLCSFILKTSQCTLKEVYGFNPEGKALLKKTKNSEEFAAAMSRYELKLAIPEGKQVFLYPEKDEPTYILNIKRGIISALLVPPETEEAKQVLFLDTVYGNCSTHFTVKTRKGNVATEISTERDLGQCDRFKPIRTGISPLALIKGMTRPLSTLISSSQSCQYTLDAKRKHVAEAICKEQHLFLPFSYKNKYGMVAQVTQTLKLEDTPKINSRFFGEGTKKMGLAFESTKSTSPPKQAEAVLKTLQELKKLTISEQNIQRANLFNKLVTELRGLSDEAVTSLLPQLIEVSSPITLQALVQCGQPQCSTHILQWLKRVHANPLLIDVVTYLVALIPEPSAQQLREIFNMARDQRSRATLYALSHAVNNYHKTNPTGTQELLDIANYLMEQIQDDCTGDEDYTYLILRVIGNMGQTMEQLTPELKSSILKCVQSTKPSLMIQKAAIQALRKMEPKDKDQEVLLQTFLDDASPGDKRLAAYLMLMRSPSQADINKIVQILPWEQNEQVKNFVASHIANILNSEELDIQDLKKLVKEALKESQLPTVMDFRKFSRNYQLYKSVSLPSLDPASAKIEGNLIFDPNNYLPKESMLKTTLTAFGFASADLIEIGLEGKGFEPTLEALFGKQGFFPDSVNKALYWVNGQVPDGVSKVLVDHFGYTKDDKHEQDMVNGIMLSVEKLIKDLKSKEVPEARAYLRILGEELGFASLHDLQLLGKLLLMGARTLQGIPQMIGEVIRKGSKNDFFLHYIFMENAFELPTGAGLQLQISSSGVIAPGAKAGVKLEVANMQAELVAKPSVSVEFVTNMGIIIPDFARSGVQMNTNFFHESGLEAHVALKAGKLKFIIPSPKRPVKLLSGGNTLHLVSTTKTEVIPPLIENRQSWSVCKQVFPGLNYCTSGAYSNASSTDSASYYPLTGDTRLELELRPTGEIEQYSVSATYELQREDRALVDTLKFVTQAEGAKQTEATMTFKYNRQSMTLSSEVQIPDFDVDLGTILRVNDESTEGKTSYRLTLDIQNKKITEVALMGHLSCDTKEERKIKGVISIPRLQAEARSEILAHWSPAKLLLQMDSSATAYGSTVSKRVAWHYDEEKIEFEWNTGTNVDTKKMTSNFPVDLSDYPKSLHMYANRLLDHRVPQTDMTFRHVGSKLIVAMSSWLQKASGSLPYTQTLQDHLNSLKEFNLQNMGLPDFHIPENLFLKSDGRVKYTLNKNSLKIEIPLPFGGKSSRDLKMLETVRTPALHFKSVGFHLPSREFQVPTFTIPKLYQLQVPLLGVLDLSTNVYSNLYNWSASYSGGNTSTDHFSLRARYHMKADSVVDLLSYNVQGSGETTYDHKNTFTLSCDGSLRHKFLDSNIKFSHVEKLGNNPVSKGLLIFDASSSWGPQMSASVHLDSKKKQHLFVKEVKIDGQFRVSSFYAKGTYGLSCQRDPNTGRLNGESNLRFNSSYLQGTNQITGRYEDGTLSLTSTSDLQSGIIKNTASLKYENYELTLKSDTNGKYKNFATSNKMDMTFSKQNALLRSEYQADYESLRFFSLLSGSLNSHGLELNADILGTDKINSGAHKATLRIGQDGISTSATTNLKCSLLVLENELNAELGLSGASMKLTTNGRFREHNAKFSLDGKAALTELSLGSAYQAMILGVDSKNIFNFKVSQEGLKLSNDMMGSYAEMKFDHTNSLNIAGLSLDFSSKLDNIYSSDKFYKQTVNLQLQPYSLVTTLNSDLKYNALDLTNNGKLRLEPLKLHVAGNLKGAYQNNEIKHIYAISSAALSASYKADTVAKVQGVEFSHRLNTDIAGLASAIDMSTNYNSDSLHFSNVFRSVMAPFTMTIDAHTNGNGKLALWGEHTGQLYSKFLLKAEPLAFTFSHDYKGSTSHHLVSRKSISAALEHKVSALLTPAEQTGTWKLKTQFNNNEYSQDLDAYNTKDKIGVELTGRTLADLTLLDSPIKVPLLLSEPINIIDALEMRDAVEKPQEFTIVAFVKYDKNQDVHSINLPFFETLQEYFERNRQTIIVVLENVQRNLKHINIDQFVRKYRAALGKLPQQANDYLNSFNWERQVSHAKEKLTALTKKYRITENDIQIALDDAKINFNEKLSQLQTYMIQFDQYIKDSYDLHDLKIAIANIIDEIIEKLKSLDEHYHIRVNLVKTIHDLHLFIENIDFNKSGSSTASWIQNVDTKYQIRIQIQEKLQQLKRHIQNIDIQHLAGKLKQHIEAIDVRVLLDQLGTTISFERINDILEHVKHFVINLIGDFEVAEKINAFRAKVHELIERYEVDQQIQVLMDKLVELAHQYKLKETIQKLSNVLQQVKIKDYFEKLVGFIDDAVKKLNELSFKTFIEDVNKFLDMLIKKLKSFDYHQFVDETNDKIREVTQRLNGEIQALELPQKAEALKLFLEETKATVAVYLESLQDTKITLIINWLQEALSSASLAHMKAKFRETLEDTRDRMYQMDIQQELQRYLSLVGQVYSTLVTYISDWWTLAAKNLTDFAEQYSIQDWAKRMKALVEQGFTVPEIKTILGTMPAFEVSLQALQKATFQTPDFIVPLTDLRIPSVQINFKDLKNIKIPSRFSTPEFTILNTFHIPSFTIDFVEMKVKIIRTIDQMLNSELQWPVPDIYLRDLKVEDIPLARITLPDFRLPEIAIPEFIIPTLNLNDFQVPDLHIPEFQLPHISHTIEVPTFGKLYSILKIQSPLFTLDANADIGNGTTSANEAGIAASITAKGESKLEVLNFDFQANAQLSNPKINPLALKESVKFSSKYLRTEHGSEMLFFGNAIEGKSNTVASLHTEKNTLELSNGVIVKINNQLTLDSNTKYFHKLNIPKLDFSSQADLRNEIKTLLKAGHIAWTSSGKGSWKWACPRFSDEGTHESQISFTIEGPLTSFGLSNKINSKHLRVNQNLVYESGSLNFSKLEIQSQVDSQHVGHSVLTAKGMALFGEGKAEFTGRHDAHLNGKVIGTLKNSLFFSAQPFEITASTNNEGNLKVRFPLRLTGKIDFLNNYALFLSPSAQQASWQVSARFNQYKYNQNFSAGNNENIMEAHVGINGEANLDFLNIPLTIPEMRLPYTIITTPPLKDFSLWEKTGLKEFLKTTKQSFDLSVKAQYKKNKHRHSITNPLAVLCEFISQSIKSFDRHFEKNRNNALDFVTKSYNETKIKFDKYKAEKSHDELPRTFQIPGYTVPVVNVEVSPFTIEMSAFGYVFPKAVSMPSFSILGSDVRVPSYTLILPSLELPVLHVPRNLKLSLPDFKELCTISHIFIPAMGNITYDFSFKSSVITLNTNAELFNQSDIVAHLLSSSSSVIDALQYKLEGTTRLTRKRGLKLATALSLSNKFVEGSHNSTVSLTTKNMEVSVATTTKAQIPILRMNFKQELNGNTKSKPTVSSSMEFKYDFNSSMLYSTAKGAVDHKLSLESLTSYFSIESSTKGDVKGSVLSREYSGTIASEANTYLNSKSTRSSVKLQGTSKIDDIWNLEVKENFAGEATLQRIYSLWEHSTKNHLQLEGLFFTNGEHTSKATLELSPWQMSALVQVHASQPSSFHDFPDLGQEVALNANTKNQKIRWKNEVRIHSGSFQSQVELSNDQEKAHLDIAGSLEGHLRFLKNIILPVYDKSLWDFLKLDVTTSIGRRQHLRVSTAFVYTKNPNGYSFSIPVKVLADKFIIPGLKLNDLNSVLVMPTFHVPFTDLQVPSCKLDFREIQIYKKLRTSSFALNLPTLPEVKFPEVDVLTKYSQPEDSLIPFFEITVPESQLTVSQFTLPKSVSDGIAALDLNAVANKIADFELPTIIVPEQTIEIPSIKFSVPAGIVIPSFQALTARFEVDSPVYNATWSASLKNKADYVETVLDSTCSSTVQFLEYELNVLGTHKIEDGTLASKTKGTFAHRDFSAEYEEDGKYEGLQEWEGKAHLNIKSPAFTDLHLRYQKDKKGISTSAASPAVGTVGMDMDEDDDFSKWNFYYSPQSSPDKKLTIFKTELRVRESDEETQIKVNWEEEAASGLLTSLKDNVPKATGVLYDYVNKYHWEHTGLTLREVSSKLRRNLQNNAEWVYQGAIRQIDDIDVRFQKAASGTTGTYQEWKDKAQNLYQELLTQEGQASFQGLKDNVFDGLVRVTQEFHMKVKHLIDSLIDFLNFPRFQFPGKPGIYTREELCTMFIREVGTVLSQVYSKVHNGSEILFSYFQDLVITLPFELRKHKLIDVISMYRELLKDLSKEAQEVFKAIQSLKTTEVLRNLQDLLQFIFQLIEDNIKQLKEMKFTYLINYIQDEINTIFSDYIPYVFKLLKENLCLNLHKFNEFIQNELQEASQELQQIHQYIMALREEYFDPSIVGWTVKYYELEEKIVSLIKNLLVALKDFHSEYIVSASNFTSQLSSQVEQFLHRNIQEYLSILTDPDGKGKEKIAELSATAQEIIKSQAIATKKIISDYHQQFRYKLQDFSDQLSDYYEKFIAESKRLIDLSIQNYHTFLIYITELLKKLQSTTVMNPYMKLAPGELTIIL
UniProt Q13795: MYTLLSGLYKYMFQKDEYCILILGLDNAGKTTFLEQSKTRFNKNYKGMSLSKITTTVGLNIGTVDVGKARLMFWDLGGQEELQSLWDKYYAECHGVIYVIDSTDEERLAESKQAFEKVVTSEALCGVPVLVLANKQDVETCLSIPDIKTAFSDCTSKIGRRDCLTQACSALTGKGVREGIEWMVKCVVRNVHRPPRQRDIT
UniProt Q92974: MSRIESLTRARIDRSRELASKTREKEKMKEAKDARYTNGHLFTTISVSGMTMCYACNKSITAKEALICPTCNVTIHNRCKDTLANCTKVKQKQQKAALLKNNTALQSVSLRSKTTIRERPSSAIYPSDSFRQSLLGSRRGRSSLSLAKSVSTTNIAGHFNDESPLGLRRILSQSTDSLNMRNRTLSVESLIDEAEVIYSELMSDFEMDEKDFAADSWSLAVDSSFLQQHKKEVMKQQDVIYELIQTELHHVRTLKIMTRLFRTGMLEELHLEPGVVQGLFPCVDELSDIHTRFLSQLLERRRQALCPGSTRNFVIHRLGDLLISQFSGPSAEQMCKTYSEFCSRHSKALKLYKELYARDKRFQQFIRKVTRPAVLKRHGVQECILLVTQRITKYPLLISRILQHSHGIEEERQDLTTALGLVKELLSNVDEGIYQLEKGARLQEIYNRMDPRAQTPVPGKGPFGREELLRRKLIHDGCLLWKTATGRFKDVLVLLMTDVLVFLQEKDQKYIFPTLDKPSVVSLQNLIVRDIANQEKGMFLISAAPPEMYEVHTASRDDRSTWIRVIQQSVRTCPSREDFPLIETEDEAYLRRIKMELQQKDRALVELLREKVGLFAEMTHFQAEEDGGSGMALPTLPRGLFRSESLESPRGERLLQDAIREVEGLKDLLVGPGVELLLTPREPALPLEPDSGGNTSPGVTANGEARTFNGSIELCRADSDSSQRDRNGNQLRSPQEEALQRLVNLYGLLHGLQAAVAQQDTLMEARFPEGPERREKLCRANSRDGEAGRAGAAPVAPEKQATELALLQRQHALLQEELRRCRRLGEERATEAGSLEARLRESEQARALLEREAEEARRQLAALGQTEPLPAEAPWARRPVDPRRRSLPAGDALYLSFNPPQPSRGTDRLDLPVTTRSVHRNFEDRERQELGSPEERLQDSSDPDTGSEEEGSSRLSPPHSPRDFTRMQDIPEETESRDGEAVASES
UniProt Q9BZZ5: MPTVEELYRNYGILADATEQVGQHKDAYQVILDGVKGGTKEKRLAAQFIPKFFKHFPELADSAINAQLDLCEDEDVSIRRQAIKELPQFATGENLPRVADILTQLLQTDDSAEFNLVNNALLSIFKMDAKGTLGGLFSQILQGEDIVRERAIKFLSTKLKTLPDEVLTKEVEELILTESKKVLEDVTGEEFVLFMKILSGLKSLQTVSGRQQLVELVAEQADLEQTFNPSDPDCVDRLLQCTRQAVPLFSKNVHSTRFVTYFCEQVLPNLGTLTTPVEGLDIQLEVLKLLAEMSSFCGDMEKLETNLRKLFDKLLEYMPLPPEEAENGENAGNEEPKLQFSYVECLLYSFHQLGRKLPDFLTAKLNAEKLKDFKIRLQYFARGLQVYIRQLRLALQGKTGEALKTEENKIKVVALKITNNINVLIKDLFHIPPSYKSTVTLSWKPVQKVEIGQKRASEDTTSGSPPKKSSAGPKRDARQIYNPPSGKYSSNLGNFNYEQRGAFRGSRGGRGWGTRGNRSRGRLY

Legend:
Test in all cases: log2 fold change, soluble protein after heating vs DMSO (PISA); higher = thermal stabilisation; K562 lysate, 10 uM; active = over 0.2 and 3.5 SD of the protein, either way, in both replicates (recomputed)
lapatinib = compound: CS(=O)(=O)CCNCc1ccc(-c2ccc3ncnc(Nc4ccc(OCc5cccc(F)c5)c(Cl)c4)c3c2)o1 [lapatinib]
How it was run: (§1)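 To prepare the extract, K562 pellets were dounce-homogenised in PBS pH 7.4 with 1 mM MgCl2, giving crude material at 1 mg/mL protein. This was treated with 10 μM compound for 30 min, then heated in aliquots for 3 min over 48°C-58°C before pooling and addition of NP-40 to 0.5% at 4°C. Centrifugation at 21,000xg for 90 min left soluble protein in the supernatant, which TMTpro 16plex LC-MS/MS quantified with equalised channel sums. Results are log-two fold changes in thermal stability compared with solvent controls, from duplicates.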

pictilisib = compound: CS(=O)(=O)N1CCN(Cc2cc3nc(-c4cccc5[nH]ncc45)nc(N4CCOCC4)c3s2)CC1 [pictilisib]
How it was run: as §1

crizotinib = compound: C[C@@H](Oc1cc(-c2cnn(C3CCNCC3)c2)cnc1N)c1c(Cl)ccc(F)c1Cl [crizotinib]
How it was run: as §1

[1] = compound: C[C@H](C1=CC=C(C=C1)C(=O)NC2=C3C=CNC3=NC=C2)N
How it was run: as §1

duvelisib = compound: C[C@H](Nc1ncnc2nc[nH]c12)c1cc2cccc(Cl)c2c(=O)n1-c1ccccc1 [duvelisib]
How it was run: as §1

gandotinib = compound: Cc1cc(Nc2cc(CN3CCOCC3)c3nc(C)c(Cc4ccc(Cl)cc4F)n3n2)n[nH]1 [gandotinib]
How it was run: as §1

tozasertib = compound: Cc1cc(Nc2cc(N3CCN(C)CC3)nc(Sc3ccc(NC(=O)C4CC4)cc3)n2)n[nH]1 [tozasertib]
How it was run: as §1

doramapimod = compound: Cc1ccc(-n2nc(C(C)(C)C)cc2NC(=O)Nc2ccc(OCCN3CCOCC3)c3ccccc23)cc1 [doramapimod]
How it was run: as §1

bafetinib = compound: Cc1ccc(NC(=O)c2ccc(CN3CC[C@H](N(C)C)C3)c(C(F)(F)F)c2)cc1Nc1nccc(-c2cncnc2)n1 [bafetinib]
How it was run: as §1

[2] = compound: Cc1cccc(CC(=O)N2CCc3c2ccc(-c2cn(C)c4ncnc(N)c24)c3F)n1
How it was run: as §1

nilotinib = compound: Cc1cn(-c2cc(NC(=O)c3ccc(C)c(Nc4nccc(-c5cccnc5)n4)c3)cc(C(F)(F)F)c2)cn1 [nilotinib]
How it was run: as §1

[3] = compound: Cc1nc(Nc2n[nH]c3c2CN(C(=O)N[C@H](CN(C)C)c2ccccc2)C3(C)C)c2sccc2n1
How it was run: as §1

dasatinib = compound: Cc1nc(Nc2ncc(C(=O)Nc3c(C)cccc3Cl)s2)cc(N2CCN(CCO)CC2)n1 [dasatinib]
How it was run: as §1

[4] = compound: Cc1ncc(-c2ccnc(Nc3ccc(S(C)(=O)=O)cc3)n2)n1C(C)C
How it was run: as §1

[5] = compound: Cn1cc(-c2ccc3c(c2)CCN3C(=O)Cc2cccc(C(F)(F)F)c2)c2c(N)ncnc21
How it was run: as §1

quisinostat = compound: Cn1cc(CNCC2CCN(c3ncc(C(=O)NO)cn3)CC2)c2ccccc21 [quisinostat]
How it was run: as §1

tipifarnib = compound: Cn1cncc1[C@@](N)(c1ccc(Cl)cc1)c1ccc2c(c1)c(-c1cccc(Cl)c1)cc(=O)n2C [tipifarnib]
How it was run: as §1

[6] = compound: NC(=O)Nc1cc(-c2cccc(F)c2)sc1C(=O)N[C@H]1CCCNC1
How it was run: as §1

[7] = compound: NC(=O)c1cnc(N[C@@H]2CCCC[C@@H]2N)nc1Nc1cccc(-n2nccn2)c1
How it was run: as §1

[8] = compound: NC1(c2ccc(-c3nc4ccn5c(=O)[nH]nc5c4cc3-c3ccccc3)cc2)CCC1
How it was run: as §1

| Target | log2 fold change (lapatinib) | log2 fold change (pictilisib) | log2 fold change (crizotinib) | log2 fold change [1] | log2 fold change (duvelisib) | log2 fold change (gandotinib) | log2 fold change (tozasertib) | log2 fold change (doramapimod) | log2 fold change (bafetinib) | log2 fold change [2] | log2 fold change (nilotinib) | log2 fold change [3] | log2 fold change (dasatinib) | log2 fold change [4] | log2 fold change [5] | log2 fold change (quisinostat) | log2 fold change (tipifarnib) | log2 fold change [6] | log2 fold change [7] | log2 fold change [8] |
| --- | --- | --- | --- | --- | --- | --- | --- | --- | --- | --- | --- | --- | --- | --- | --- | --- | --- | --- | --- | --- |
| ARL8A (UniProt Q96BM9) | inactive: -0.11 | inactive: 0.038 | inactive: 0.091 | active: 0.426 | inactive: -0.078 | inactive: 0 | inactive: -0.063 | inactive: -0.005 | inactive: -0.016 | inactive: -0.088 | inactive: 0.003 | inactive: 0.049 | inactive: 0.037 | inactive: 0.091 | inactive: -0.049 | inactive: 0.17 | inactive: -0.203 | inactive: 0.153 | inactive: 0.247 | inactive: -0.054 |
| APOB (UniProt P04114) | inactive: 0.054 | inactive: 0.004 | inactive: -0.003 | inactive: -0.182 | inactive: 0.104 | inactive: 0.084 | inactive: 0.015 | inactive: 0.024 | inactive: -0.091 | inactive: 0.06 | inactive: -0.002 | inactive: 0.022 | inactive: -0.096 | inactive: -0.017 | inactive: -0.038 | inactive: -0.092 | inactive: 0.033 | inactive: 0.013 | inactive: -0.035 | inactive: 0.008 |
| ARMC1 (UniProt Q9NVT9) | inactive: 0.017 | inactive: -0.019 | inactive: -0.03 | inactive: -0.021 | inactive: -0.006 | inactive: 0.012 | inactive: 0.004 | inactive: 0.031 | inactive: -0.002 | inactive: 0.034 | inactive: -0.001 | inactive: 0.006 | inactive: -0.018 | inactive: -0.001 | inactive: -0.01 | inactive: -0.046 | inactive: 0.02 | inactive: 0.031 | inactive: 0.02 | inactive: -0.006 |
| ARPC4 isoform 3 (UniProt P59998) | inactive: -0.011 | inactive: 0.01 | inactive: 0.042 | inactive: 0.018 | inactive: 0 | inactive: -0.009 | inactive: 0.024 | inactive: 0.003 | inactive: 0.007 | inactive: -0.031 | inactive: -0.004 | inactive: -0.017 | inactive: 0.012 | inactive: -0.019 | inactive: 0.008 | inactive: 0.034 | inactive: 0.01 | inactive: -0.045 | inactive: 0.001 | inactive: 0.003 |
| APOBEC3D (UniProt Q96AK3) | inactive: -0.033 | inactive: -0.021 | inactive: 0.022 | inactive: 0.019 | inactive: -0.033 | inactive: -0.073 | inactive: 0.03 | inactive: -0.004 | inactive: -0.114 | inactive: 0.1 | inactive: 0.018 | inactive: -0.028 | inactive: -0.121 | inactive: -0.002 | inactive: 0.042 | inactive: 0.011 | inactive: 0.05 | inactive: 0.038 | inactive: 0.018 | inactive: -0.052 |
| ARNT (UniProt P27540) | inactive: 0.074 | inactive: 0.027 | inactive: 0.048 | inactive: -0.051 | inactive: -0.002 | inactive: 0.07 | inactive: 0.02 | inactive: 0.012 | inactive: 0.014 | inactive: 0.065 | inactive: -0.094 | inactive: -0.04 | inactive: -0.01 | inactive: 0.008 | inactive: 0.001 | inactive: -0.052 | inactive: -0.07 | inactive: 0.019 | inactive: -0.028 | inactive: 0.007 |
| ARFRP1 (UniProt Q13795) | inactive: 0.025 | inactive: -0.023 | inactive: 0.031 | inactive: 0.036 | inactive: -0.033 | inactive: 0.002 | inactive: 0.182 | inactive: 0.023 | inactive: 0.036 | inactive: 0.009 | inactive: 0.036 | inactive: 0.014 | inactive: -0.037 | inactive: -0.042 | inactive: 0.016 | inactive: -0.022 | inactive: -0.1 | inactive: 0.039 | inactive: -0.022 | inactive: -0.072 |
| ARID3B (UniProt Q8IVW6) | inactive: 0.049 | inactive: -0.017 | inactive: 0.028 | inactive: -0.155 | inactive: -0.034 | inactive: -0.037 | inactive: -0.029 | inactive: -0.005 | inactive: 0.022 | inactive: 0.166 | inactive: 0.048 | inactive: 0.044 | inactive: -0.114 | inactive: 0.008 | inactive: 0.012 | inactive: 0.008 | inactive: -0.009 | inactive: -0.002 | inactive: 0.028 | inactive: 0.012 |
| ARCN1 (UniProt P48444) | inactive: -0.001 | inactive: 0.004 | inactive: 0.004 | inactive: -0.001 | inactive: 0.015 | inactive: -0.02 | inactive: -0.004 | inactive: 0.012 | inactive: -0.004 | inactive: 0.001 | inactive: -0.008 | inactive: -0.03 | inactive: 0.006 | inactive: -0.014 | inactive: 0.01 | inactive: 0.002 | inactive: 0.016 | inactive: -0.008 | inactive: 0.004 | inactive: 0.001 |
| ARMC6 (UniProt Q6NXE6) | inactive: 0 | inactive: -0.015 | inactive: -0.022 | inactive: 0.012 | inactive: -0.027 | inactive: -0.067 | inactive: 0.024 | inactive: 0 | inactive: -0.016 | inactive: -0.009 | inactive: -0.001 | inactive: -0.006 | inactive: -0.055 | inactive: -0.017 | inactive: 0.013 | inactive: -0.057 | inactive: 0 | inactive: 0.094 | inactive: 0.017 | inactive: -0.031 |
| ARMT1 (UniProt Q9H993) | inactive: -0.016 | inactive: -0.031 | inactive: -0.06 | inactive: 0.066 | inactive: 0.009 | inactive: -0.111 | inactive: -0.001 | inactive: 0.005 | inactive: -0.073 | inactive: 0.019 | inactive: -0.019 | inactive: -0.016 | inactive: -0.083 | inactive: 0.014 | inactive: -0.007 | inactive: -0.021 | inactive: 0.016 | inactive: 0.031 | inactive: -0.005 | inactive: -0.016 |
| ARHGAP35 (UniProt Q9NRY4) | inactive: -0.036 | inactive: -0.009 | inactive: -0.016 | inactive: 0.001 | inactive: -0.016 | inactive: -0.054 | inactive: 0.012 | inactive: 0.011 | inactive: -0.064 | inactive: 0.08 | inactive: 0.027 | inactive: -0.002 | inactive: -0.043 | inactive: 0.007 | inactive: -0.007 | inactive: -0.046 | inactive: -0.045 | inactive: 0.01 | inactive: -0.019 | inactive: -0.009 |
| ARHGEF2 (UniProt Q92974) | inactive: 0.014 | inactive: 0.005 | inactive: -0.016 | inactive: 0.006 | inactive: -0.017 | inactive: 0.025 | inactive: 0.018 | inactive: 0.089 | inactive: -0.045 | inactive: 0.04 | inactive: 0.014 | inactive: -0.01 | inactive: -0.01 | inactive: -0.025 | inactive: 0.013 | inactive: -0.048 | inactive: -0.04 | inactive: 0.006 | inactive: -0.008 | inactive: 0.013 |
| API5 (UniProt Q9BZZ5) | inactive: -0.04 | inactive: -0.009 | inactive: -0.011 | inactive: -0.202 | inactive: 0.015 | inactive: 0.067 | inactive: -0.015 | inactive: 0.006 | inactive: -0.017 | inactive: 0.087 | inactive: 0.007 | inactive: -0.021 | inactive: -0.002 | inactive: -0.017 | inactive: -0.02 | inactive: -0.043 | inactive: 0.015 | inactive: -0.005 | inactive: -0.021 | inactive: -0.032 |
| ARF3 (UniProt P61204) | inactive: -0.011 | inactive: -0.034 | inactive: 0.016 | inactive: -0.142 | inactive: 0 | inactive: 0.093 | inactive: -0.01 | inactive: 0.069 | inactive: -0.029 | inactive: 0.044 | inactive: -0.006 | inactive: -0.006 | inactive: 0.063 | inactive: -0.022 | inactive: -0.029 | inactive: -0.024 | inactive: -0.038 | inactive: -0.003 | inactive: 0.007 | inactive: 0.009 |
| ARPP19 (UniProt H3BMD8) | inactive: -0.017 | inactive: -0.035 | inactive: -0.04 | inactive: -0.161 | inactive: 0.075 | inactive: 0.118 | inactive: -0.037 | inactive: -0.016 | inactive: 0.001 | inactive: 0.097 | inactive: 0.055 | inactive: -0.036 | inactive: 0.011 | inactive: 0.029 | inactive: -0.059 | inactive: -0.174 | inactive: -0.031 | inactive: -0.036 | inactive: -0.078 | inactive: -0.032 |
